Consider two molecules from publication PMC12288870.

Chains of the proteins cited; added tags and fusions are not shown.
UniProt O60573: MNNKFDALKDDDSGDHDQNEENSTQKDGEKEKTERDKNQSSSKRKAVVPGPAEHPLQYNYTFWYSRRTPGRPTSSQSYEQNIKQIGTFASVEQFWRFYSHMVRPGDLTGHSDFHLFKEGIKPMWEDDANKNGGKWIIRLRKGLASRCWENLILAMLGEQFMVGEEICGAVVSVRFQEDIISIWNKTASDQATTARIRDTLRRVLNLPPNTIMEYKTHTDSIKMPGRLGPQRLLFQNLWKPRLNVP

In this test the target is FLAG-tagged Nsp2 from SARS-CoV-1 (SARS-CoV-1) (UniProt P0C6X7). Put plainly: co-IP.

No constants are given. Whether binding was seen depends on the method and setting. In cells and extracts the contact can be indirect. Some results given as binding are weak or reduced against the parent protein; the word gives no strength.

On to eIF4E2 (from UniProt O60573 1-245), for which the binding entry is given as “binds”.

B1: GIGYF2 (protein, UniProt Q6Y7W6 1-1299)
chain: MAAETQTLNFGPEWLRALSSGGSITSPPLSPALPKYKLADYRYGREEMLALFLKDNKIPSDLLDKEFLPILQEEPLPPLALVPFTEEEQRNFSMSVNSAAVLRLTGRGGGGTVVGAPRGRSSSRGRGRGRGECGFYQRSFDEVEGVFGRGGGREMHRSQSWEERGDRRFEKPGRKDVGRPNFEEGGPTSVGRKHEFIRSESENWRIFREEQNGEDEDGGWRLAGSRRDGERWRPHSPDGPRSAGWREHMERRRRFEFDFRDRDDERGYRRVRSGSGSIDDDRDSLPEWCLEDAEEEMGTFDSSGAFLSLKKVQKEPIPEEQEMDFRPVDEGEECSDSEGSHNEEAKEPDKTNKKEGEKTDRVGVEASEETPQTSSSSARPGTPSDHQSQEASQFERKDEPKTEQTEKAEEETRMENSLPAKVPSRGDEMVADVQQPLSQIPSDTASPLLILPPPVPNPSPTLRPVETPVVGAPGMGSVSTEPDDEEGLKHLEQQAEKMVAYLQDSALDDERLASKLQEHRAKGVSIPLMHEAMQKWYYKDPQGEIQGPFNNQEMAEWFQAGYFTMSLLVKRACDESFQPLGDIMKMWGRVPFSPGPAPPPHMGELDQERLTRQQELTALYQMQHLQYQQFLIQQQYAQVLAQQQKAALSSQQQQQLALLLQQFQTLKMRISDQNIIPSVTRSVSVPDTGSIWELQPTASQPTVWEGGSVWDLPLDTTTPGPALEQLQQLEKAKAAKLEQERREAEMRAKREEEERKRQEELRRQQEEILRRQQEEERKRREEEELARRKQEEALRRQREQEIALRRQREEEERQQQEEALRRLEERRREEEERRKQEELLRKQEEEAAKWAREEEEAQRRLEENRLRMEEEAARLRHEEEERKRKELEVQRQKELMRQRQQQQEALRRLQQQQQQQQLAQMKLPSSSTWGQQSNTTACQSQATLSLAEIQKLEEERERQLREEQRRQQRELMKALQQQQQQQQQKLSGWGNVSKPSGTTKSLLEIQQEEARQMQKQQQQQQQHQQPNRARNNTHSNLHTSIGNSVWGSINTGPPNQWASDLVSSIWSNADTKNSNMGFWDDAVKEVGPRNSTNKNKNNASLSKSVGVSNRQNKKVEEEEKLLKLFQGVNKAQDGFTQWCEQMLHALNTANNLDVPTFVSFLKEVESPYEVHDYIRAYLGDTSEAKEFAKQFLERRAKQKANQQRQQQQLPQQQQQQPPQQPPQQPQQQDSVWGMNHSTLHSVFQTNQSNNQQSNFEAVQSGKKKKKQKMVRADPSLLGFSVNASSERLNMGEIETLDDY
For the molecule B1, the binding result is listed as “binds”.
